The exact form of at least one protein or probe is not confirmed. At least one verdict rests on a figure or table, not on a statement of the authors.

One sequence from article PMC10729762 can be followed below.

The data set concerns CsrA + Hfq. Briefly: EMSA. To be noted: 6 uM CsrA + Hfq, likely ternary complex; 10 nM denatured RNA, 0-6 uM CsrA, 0-3 uM Hfq; 1X binding buffer (10 mM Tris-HCl pH 7.5, 10 mM MgCl2, 100 mM KCl) plus CsrA dilution buffer, 11% glycerol, 20 mM DTT; recombinant protein; label: internal 32P-UTP. For orientation: Mobility shift assays separate free from complexed probe on a gel.

Take “GAUGAAGCAAGGGGGUGCCCCAUGCGUCAGUUUUAUCAGCACUAUUUUACCGCGACAGCGAAGUUGUGCUGGUUGCGUUGGUUAAGCGUCCCACAACGAUUAACCAUGCUUGAAGGACUGAUGCAGUGGGAUGACCGCAAUUCUGAAAGUUGACUUGCCUGCAUCAUGUGUGACUGAGUAUUGGUGUAAAAUCACCCGCCAGCAGAUUAUACCUGCUGGUUUUUUUU [SgrS]”: the binding result is “binds”.
